Values from PubChem BioAssay AID1259308 (NCATS, 2017).
Purpose: 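Candidate targets for better recombinant protein yield in mammalian cells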 (primary screen). Cell system: human HEK293 embryonic kidney cells stably expressing firefly luciferase (HEK-CMV-Luc2-Hygro). Reagents: single siRNA against human genes, 0.8 pmol siRNA per well. Duration: 72 h. Read-out: 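Reporter luminescence and viable-cell signal on separate replicate plates, given as percent of non-targeting control and median/MAD z-scores, plus per-cell luciferase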. Direction: total luciferase, z-score and total luciferase, % of control: higher = more reporter protein produced. Rule for the call: 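An siRNA counts as active if its total luciferase robust z-score exceeds 3; genes with two or more such siRNAs out of three were retested with fresh siRNAs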. Calls: active = raised luciferase; inactive = no rise.
The whole screen tested about 59,000 reagents; below is a part drawn at random. In the full data, about 1,510 (2.6%) were called active. 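Calls use total luciferase alone and ignore viability, so some active siRNAs may act by altering cell number.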 A number with no mark means an inactive call. Reagents against one gene are numbered here. Further read-outs or replicates are left out here. No sequences are given here.

CAPRIN2 #1 gave total luciferase, z-score -0.223; total luciferase, % of control 77.5. CAPRIN2 #2 showed total luciferase, z-score 0.246; total luciferase, % of control 86.8. Depletion of CAPRIN2 #3 resulted in: total luciferase, z-score 1.17; total luciferase, % of control 105. For MYO1G #1, the values are total luciferase, z-score 1.56; total luciferase, % of control 113. Depletion of MYO1G #2 gave: total luciferase, z-score 0.85; total luciferase, % of control 98.8. Silencing of MYO1G #3 resulted in: total luciferase, z-score -0.289; total luciferase, % of control 76.1.

For NET1 #1, the values are total luciferase, z-score -0.251; total luciferase, % of control 76.9. NET1 #2 scored total luciferase, z-score 0.562; total luciferase, % of control 93.1. Knock-down of NET1 #3 gave: total luciferase, z-score 0.388; total luciferase, % of control 89.6. Depletion of TYK2 #1 resulted in: total luciferase, z-score 0.00905; total luciferase, % of control 82.1. For TYK2 #2, the entry reads total luciferase, z-score 1.61; total luciferase, % of control 114. With knock-down of TYK2 #3 the results were total luciferase, z-score -0.941; total luciferase, % of control 63.2.

For ARSD #1 the deposit lists total luciferase, z-score -0.324; total luciferase, % of control 75.4. Knock-down of ARSD #2 resulted in: total luciferase, z-score 1.1; total luciferase, % of control 104. ARSD #3 showed total luciferase, z-score -1.83; total luciferase, % of control 45.6. Against SEC22B #1, the values are total luciferase, z-score -1.84; total luciferase, % of control 45.2. For SEC22B #2, the entry reads total luciferase, z-score 0.807; total luciferase, % of control 97.9. SEC22B #3 gave total luciferase, z-score -0.00508; total luciferase, % of control 81.8.

Depletion of RRP7A #1 gave: total luciferase, z-score 0.222; total luciferase, % of control 86.3. Knock-down of RRP7A #2 resulted in: total luciferase, z-score 0.224; total luciferase, % of control 86.3. With knock-down of RRP7A #3, the record shows total luciferase, z-score 0.458; total luciferase, % of control 91.

Part of the list above, set out differently:
| target gene | siRNA no. | total luciferase, z-score | total luciferase, % of control |
| --- | --- | --- | --- |
| MYO1G | 3 | -0.289 | 76.1 |
| NET1 | 1 | -0.251 | 76.9 |
